Results reported in patent US20080003305A1, “PROCESS AND COMPOSITIONS FOR THE DISINFECTION OF WATERS” (BROMINE COMPOUNDS LIMITED, priority 1991, published 2008).
At least one structure is not confirmed: it was looked up by name or label, or the drawing left a doubt.

Legend:
Format in all cases: cell-based
[1] = test system: total aerobic viable counts; experiment: Efficacy of oxidizing biocides in water taken from a paper mill (thick stock of pulp slurry); conditions: 15 mg/l as Cl2
Protocol: Efficacy of Oxidizing Biocides in Water Taken from a Paper Mill (Thick Stock of Pulp Slurry)
Microorganisms were incubated at 37° C. (total aerobic viable counts).
Concentration of stock solution: 0.1% as Cl2.

fungi = experiment: Efficacy in domestic waste containing a high concentration of amines: fungi; conditions: 60 ppm; contact time 10 minutes; N as NH3 50mg/l; pH 6.10
Protocol: Efficacy of a Series of Biocides in Domestic Waste Containing a High Concentration of Amines
Incubation temperature: 27° C.
Stock concentration: 0.2%

total anaerobic MOs = experiment: Kinetics of kill in water from a citrus juice evaporator: total anaerobic; conditions: 30 ppm as Cl2; 60 minutes
Protocol: Kinetics of Kill of Various Mixtures of Ammonium Salts Mixed with NaOCl in Water from a Citrus Juice Evaporator
Demand: Higher than 30 ppm out of 30 ppm of Cl2 during 10 minutes.
Stock concentration of NH4X+NaOCl: 0.1% as Cl2

| SMILES | Viable counts after time (minutes): 70 ([1]; 70 minutes) | Viable counts after time: 25 hours ([1]; 25 hours) | Surviving MOs after 10 minutes fungi (fungi) [× 10 cfu/ml] | Surviving MOs after time (minutes); (total anaerobic): 60 (total anaerobic MOs) [× 10 cfu/ml] |
| --- | --- | --- | --- | --- |
| N#CC(Br)(Br)C(N)=O [DBNPA] | 6 × 10^ cfu/ml | 8 × 10^ cfu/ml | – | – |
| [Na+].[O-]Cl [NaOCl, sodium hypochlorite] | – | – | 2 | 3 |
